These results are taken from article PMC10948558.

The chains behind the UniProt entries cited, without tags or fusion partners.
UniProt Q96RU2: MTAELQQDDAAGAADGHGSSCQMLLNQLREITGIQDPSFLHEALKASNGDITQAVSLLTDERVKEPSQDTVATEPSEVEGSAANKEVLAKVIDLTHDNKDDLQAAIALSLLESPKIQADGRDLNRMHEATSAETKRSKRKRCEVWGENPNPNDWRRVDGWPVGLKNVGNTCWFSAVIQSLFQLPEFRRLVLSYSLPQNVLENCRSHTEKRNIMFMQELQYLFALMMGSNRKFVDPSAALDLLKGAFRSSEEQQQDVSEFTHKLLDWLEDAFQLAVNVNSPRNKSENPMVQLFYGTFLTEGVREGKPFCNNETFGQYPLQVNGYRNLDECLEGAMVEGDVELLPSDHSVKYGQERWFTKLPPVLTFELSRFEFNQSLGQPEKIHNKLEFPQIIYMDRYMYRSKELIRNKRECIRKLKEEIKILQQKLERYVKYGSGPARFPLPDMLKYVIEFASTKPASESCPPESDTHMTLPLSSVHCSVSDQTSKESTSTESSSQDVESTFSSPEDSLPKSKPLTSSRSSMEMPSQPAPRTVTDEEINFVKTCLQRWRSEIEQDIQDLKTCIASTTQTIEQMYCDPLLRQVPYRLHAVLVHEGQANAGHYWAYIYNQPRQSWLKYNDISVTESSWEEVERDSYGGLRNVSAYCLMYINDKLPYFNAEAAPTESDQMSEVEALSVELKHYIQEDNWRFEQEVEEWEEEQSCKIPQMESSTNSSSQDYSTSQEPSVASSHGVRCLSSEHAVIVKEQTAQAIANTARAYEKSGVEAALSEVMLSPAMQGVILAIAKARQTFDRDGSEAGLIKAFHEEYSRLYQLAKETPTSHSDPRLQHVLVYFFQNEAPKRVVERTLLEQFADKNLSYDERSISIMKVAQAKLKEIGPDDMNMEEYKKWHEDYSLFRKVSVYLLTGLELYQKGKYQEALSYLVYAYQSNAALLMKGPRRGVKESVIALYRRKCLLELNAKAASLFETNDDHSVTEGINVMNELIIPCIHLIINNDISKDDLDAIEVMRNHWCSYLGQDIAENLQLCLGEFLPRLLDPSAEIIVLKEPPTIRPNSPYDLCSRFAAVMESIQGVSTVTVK
UniProt Q9Y2H9: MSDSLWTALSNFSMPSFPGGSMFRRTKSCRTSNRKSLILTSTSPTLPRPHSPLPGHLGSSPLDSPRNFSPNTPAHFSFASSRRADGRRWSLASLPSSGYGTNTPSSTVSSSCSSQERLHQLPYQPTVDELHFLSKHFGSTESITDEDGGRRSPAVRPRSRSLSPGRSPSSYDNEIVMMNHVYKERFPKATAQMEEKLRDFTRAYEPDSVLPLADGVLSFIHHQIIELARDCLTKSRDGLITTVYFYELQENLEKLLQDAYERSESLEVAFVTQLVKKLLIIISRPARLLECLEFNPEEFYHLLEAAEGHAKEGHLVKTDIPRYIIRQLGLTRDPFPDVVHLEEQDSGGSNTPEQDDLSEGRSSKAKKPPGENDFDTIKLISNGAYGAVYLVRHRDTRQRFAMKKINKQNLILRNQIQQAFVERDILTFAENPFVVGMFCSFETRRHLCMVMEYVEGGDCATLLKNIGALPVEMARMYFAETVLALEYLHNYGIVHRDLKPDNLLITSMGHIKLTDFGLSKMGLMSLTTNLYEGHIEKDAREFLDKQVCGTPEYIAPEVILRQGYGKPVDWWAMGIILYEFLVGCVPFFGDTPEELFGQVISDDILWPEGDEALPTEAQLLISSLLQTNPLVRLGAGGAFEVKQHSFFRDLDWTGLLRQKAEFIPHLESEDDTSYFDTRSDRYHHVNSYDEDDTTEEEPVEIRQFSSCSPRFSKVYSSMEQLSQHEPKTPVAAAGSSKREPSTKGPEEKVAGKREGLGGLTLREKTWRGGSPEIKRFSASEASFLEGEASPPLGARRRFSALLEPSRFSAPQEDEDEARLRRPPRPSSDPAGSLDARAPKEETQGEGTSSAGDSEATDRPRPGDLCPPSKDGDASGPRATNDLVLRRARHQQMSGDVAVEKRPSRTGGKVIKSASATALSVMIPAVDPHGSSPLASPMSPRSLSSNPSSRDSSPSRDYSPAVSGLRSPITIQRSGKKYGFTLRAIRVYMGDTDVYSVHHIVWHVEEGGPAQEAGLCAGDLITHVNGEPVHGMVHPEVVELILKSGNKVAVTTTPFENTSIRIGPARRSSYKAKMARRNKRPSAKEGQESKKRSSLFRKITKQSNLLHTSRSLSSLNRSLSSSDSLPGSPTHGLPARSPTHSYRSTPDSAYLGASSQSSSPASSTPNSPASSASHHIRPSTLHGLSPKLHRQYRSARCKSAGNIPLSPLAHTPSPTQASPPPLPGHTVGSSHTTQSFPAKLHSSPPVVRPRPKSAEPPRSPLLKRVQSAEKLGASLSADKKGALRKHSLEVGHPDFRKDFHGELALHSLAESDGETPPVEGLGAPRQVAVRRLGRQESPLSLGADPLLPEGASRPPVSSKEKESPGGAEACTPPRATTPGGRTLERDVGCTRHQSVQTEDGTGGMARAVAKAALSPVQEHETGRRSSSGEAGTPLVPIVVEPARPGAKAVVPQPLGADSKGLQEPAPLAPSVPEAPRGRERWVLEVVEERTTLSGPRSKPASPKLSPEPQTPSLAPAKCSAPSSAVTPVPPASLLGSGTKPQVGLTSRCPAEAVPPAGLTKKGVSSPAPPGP

The target in the experiment is USP28 (human (endogenous in A549)) (UniProt Q96RU2). In words: co-IP; endogenous proteins in A549 lysate; IP with antibodies against USP28 or MAST1 at 4 °C overnight, protein agarose beads; IP lysis buffer 25 mM Tris-HCl pH 7.4, 150 mM NaCl, 1 mM EDTA, 1% NP-40, 5% glycerol; western blot.

Results are given in words; binding and its absence hold for the method and conditions named. In cells and extracts the contact can be indirect. Some results given as binding are weak or reduced against the parent protein; the word gives no strength.

For the substance “microtubule-associated serine/threonine kinase 1 (MAST1) (from UniProt Q9Y2H9 1-1570) (enzyme)”, the binding entry was “binds”.
